Values of other authors in patent US20110245283A1, “Methods for predicting the response to statins” (priority 2009, published 2011).
Like-named read-outs stand apart in the source and are kept apart here. At least one structure is not confirmed: it was looked up by name or label, or the drawing left a doubt.

What was measured:
LDL [1] = details: second study named in the background; any dose adjustment or change; cited from earlier work
LDL [2] = details: cited from earlier work

CCC(C)(C)C(=O)O[C@H]1C[C@@H](C)C=C2C=C[C@H](C)[C@H](CC[C@@H]3C[C@@H](O)CC(=O)O3)[C@H]21 [Simvastatin, simvastatin]
Success of dose adjustment (reaching LDL goal) (LDL [1]): ≤ 62% | Average LDL reduction (LDL [2]; Dose 10 mg): 28% | Average LDL reduction (LDL [2]; Dose 20 mg): 35% | Average LDL reduction (LDL [2]; Dose 40 mg): 40% | Average LDL reduction (LDL [2]; Dose 80 mg): 48%
